# Results deposited as PubChem BioAssay AID1508588 (Peter MacCallum Cancer Centre, 2020)
# Test: 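Which gene losses make BRAF-mutant melanoma cells more responsive to vemurafenib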 (primary screen)
# Cell system: human WM266.4 melanoma cells (BRAF V600 mutant)
# Reagents: siRNA pool against human genes, 40 nM
# Duration: 96 h from transfection to read-out
# Challenge: vemurafenib 300 nM (about IC25), added 48 h after transfection, for 48 h; comparison arm got DMSO vehicle only
# Detection: 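Cell gain (DAPI nuclei at end minus before drug, mean of two replicates) and medium lactate by absorbance per cell, both as ratio to non-targeting siRNA, also grouped into fold-change classes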
# Direction: cell gain with vemurafenib: higher = more cell gain than with non-targeting siRNA; lactate per cell with vemurafenib: higher = more lactate made per cell
# Hit rule: 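a knock-down counts as enhancing when its fold-change classes with vehicle and with vemurafenib, taken together, show a stronger drug effect on cell gain or lactate per cell; exact class pairs not stated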
# Meaning of the calls: active = enhances vemurafenib effect; inactive = no enhancement seen
# In all, the deposit lists about 18,000 reagents; this is an unselected part. Of all reagents, 790 (4.4%) got an active call. 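Calls rest on a combination of fold-change classes in drug and vehicle arms, not all shown here.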
gene knocked down,cell gain with vemurafenib,lactate per cell with vemurafenib,activity call
PDE9A (GeneID 5152),0.34,1.5,inactive
GNB1 (GeneID 2782),0.48,0.31,inactive
TVP23B (GeneID 51030),1.62,0.76,inactive
SLC16A2 (GeneID 6567),0.6,0.76,inactive
ANKMY1 (GeneID 51281),0.44,0.91,inactive
CUX2 (GeneID 23316),0.24,1.84,inactive
GKN1 (GeneID 56287),0.46,1.09,inactive
FAM81B (GeneID 153643),0.73,1.02,inactive
FLNB (GeneID 2317),0.01,0.63,inactive
LINC01465 (GeneID 283416),0.36,1.34,inactive
GGA1 (GeneID 26088),0.44,1.02,inactive
HOOK2 (GeneID 29911),0.29,1.55,inactive
CDHR5 (GeneID 53841),0.76,1.01,inactive
INO80B (GeneID 83444),0.45,0.75,inactive
ARHGEF37 (GeneID 389337),0.96,0.82,inactive
GABRG2 (GeneID 2566),0.7,0.46,inactive
ASTN2 (GeneID 23245),0.38,0.91,inactive
CNTNAP4 (GeneID 85445),0.26,0.82,inactive
MELK (GeneID 9833),0.81,0.78,inactive
EMILIN3 (GeneID 90187),0.21,1.73,inactive
TTC7B (GeneID 145567),0.44,1.16,inactive
CDK13 (GeneID 8621),0.68,1.34,inactive
CFC1 (GeneID 55997),0.4,0.92,inactive
TMEM237 (GeneID 65062),0.55,0.62,inactive
OR10J1 (GeneID 26476),0.94,0.58,inactive
GPNMB (GeneID 10457),0.77,0.92,inactive
PODN (GeneID 127435),0.43,1.84,inactive
HEBP2 (GeneID 23593),0.38,1.42,inactive
LIN7A (GeneID 8825),0.97,0.6,inactive
TES (GeneID 26136),0.04,0.22,inactive
OVCH1 (GeneID 341350),0.69,0.32,inactive
CDKN2B (GeneID 1030),1.36,0.64,inactive
RPP38 (GeneID 10557),0.55,0.81,inactive
KDR (GeneID 3791),0.6,0.73,inactive
SRRM4 (GeneID 84530),0.53,1.56,inactive
CCDC170 (GeneID 80129),0.68,0.94,inactive
DAB2IP (GeneID 153090),0.06,1.89,inactive
TUBB4A (GeneID 10382),0.09,1.29,inactive
POLR3K (GeneID 51728),0.53,1.05,inactive
TMEM94 (GeneID 9772),0.39,1.3,inactive
PLA2G7 (GeneID 7941),0.45,1.77,inactive
USF1 (GeneID 7391),0.62,1.34,inactive
COP1 (GeneID 64326),0.99,0.64,inactive
LIPT1 (GeneID 51601),0.75,0.92,inactive
BCKDHB (GeneID 594),0.37,0.5,inactive
TRPM8 (GeneID 79054),0.76,1.31,inactive
SLC37A2 (GeneID 219855),0.58,1.01,inactive
AP1S2 (GeneID 8905),0.61,0.76,inactive
GPR151 (GeneID 134391),0.29,1.47,inactive
LARGE1 (GeneID 9215),0.45,0.64,inactive
YWHAB (GeneID 7529),0.82,0.42,inactive
VSIG1 (GeneID 340547),0.69,0.8,inactive
TMEM120B (GeneID 144404),0.78,0.7,inactive
CYLC2 (GeneID 1539),0.87,0.64,inactive
TDRP (GeneID 157695),0.58,1.67,inactive
WDSUB1 (GeneID 151525),1.06,0.92,inactive
ACOT11 (GeneID 26027),0.55,1.31,inactive
COQ2 (GeneID 27235),0.48,0.82,inactive
CCDC89 (GeneID 220388),0.63,1,inactive
CRLF2 (GeneID 64109),0.36,1.04,inactive
MNMIP1 (GeneID 79729),1.22,0.42,inactive
SCGB1A1 (GeneID 7356),0.45,1.14,inactive
JMJD7-PLA2G4B (GeneID 8681),0.49,0.77,inactive
TMUB2 (GeneID 79089),0.62,0.82,inactive
ADCK2 (GeneID 90956),0.34,1.61,inactive
PADI2 (GeneID 11240),0.62,1.6,inactive
ENO2 (GeneID 2026),0.74,1.24,inactive
UTP15 (GeneID 84135),0.26,1.2,inactive
NATD1 (GeneID 256302),1.4,0.98,inactive
ZSWIM7 (GeneID 125150),0.49,0.79,inactive
NOA1 (GeneID 84273),0.25,2.04,inactive
SCN11A (GeneID 11280),0.66,0.4,active
PLA2G15 (GeneID 23659),0.87,0.82,inactive
ZNF551 (GeneID 90233),0.18,2.01,inactive
CD1D (GeneID 912),0,0.65,inactive
LAMA1 (GeneID 284217),0.4,1.17,inactive
TPCN1 (GeneID 53373),0.38,1.62,inactive
SRP19 (GeneID 6728),0.64,1.14,inactive
ITGA3 (GeneID 3675),0.35,1.27,inactive
ZNF433 (GeneID 163059),0.61,0.88,inactive
CCDC3 (GeneID 83643),-0.02,1.19,active
PEBP4 (GeneID 157310),0.4,0.92,inactive
ASPM (GeneID 259266),0.76,0.84,inactive
MTHFD2L (GeneID 441024),0.95,0.8,inactive
MIER1 (GeneID 57708),1.01,0.92,inactive
KRI1 (GeneID 65095),0.78,1.06,inactive
NEUROD1 (GeneID 4760),0.82,1.5,inactive
ADGRA2 (GeneID 25960),0.11,0.96,inactive
TBC1D24 (GeneID 57465),0.28,0.8,inactive
TRIM62 (GeneID 55223),1,0.74,inactive
EGFL7 (GeneID 51162),0.22,2.15,inactive
PTGFR (GeneID 5737),1.03,0.6,inactive
STK32A (GeneID 202374),0.93,0.94,inactive
SLC35B4 (GeneID 84912),0.64,1.18,inactive
MRPL41 (GeneID 64975),0.31,2.02,inactive
PPP1R11 (GeneID 6992),0.29,1.64,inactive
ROCK1 (GeneID 6093),0.91,1.53,inactive
NAT9 (GeneID 26151),0.19,0.57,inactive
NHP2 (GeneID 55651),0.49,1.22,inactive
TBC1D3G (GeneID 101060321),0.98,0.88,inactive
NECTIN4 (GeneID 81607),0.84,0.62,inactive
B4GALT7 (GeneID 11285),0.64,1.06,inactive
MOCOS (GeneID 55034),1.99,0.88,inactive
NETO2 (GeneID 81831),0.78,0.73,inactive
EXOG (GeneID 9941),0.4,0.68,inactive
PPARG (GeneID 5468),0.36,1.14,inactive
ISYNA1 (GeneID 51477),1.41,0.5,inactive
